PubChem BioAssay AID1671190 (National Center for Advancing Translational Sciences (NCATS), 2021)
Hit rate of the full screen: of about 580,000 compounds, about 6,100 (1.1%) were called active. The shares of active, inactive and inconclusive entries below differ from those in the screen. The call rests on the fitted dose curve; in most records, active means well fitted inhibition curve with a large enough effect; inconclusive means small, poorly fitted or top-dose-only effect, or another doubt; inactive means no such curve, though single readings can be large or run the other way. Where the call is inconclusive, the potency comes from a doubtful curve fit.
On the % scale 0 is the no-effect control and ±100 the full control effect; potency means the concentration at half of the fitted maximal effect.

Protein sequences, listed by entry. Tags and fused reporters are not part of them.
UniProt P18054, whole entry, looked up: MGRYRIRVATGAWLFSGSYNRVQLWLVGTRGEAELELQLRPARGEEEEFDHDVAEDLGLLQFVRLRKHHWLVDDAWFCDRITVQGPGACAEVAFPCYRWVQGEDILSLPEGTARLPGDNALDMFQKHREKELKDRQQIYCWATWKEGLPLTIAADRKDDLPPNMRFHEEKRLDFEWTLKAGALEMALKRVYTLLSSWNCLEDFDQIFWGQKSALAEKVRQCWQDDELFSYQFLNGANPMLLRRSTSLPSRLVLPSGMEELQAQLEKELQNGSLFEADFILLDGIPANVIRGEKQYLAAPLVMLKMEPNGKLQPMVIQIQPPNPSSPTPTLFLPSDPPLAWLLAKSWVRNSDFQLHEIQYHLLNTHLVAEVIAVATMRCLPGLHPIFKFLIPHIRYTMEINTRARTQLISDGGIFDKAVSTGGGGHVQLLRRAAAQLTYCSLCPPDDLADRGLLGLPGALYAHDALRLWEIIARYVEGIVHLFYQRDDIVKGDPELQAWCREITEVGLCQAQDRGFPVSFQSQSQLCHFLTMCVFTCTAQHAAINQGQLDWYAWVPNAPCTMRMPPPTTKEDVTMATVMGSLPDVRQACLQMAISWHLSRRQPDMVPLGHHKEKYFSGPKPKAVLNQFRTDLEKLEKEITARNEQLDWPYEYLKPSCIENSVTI

Each compound was assayed against Polyunsaturated fatty acid lipoxygenase ALOX12 (Homo sapiens) (UniProt P18054) (assay: Primary qHTS assay for inhibitors of human arachidonate 12S-lipoxygenase (ALOX12): Round 2). Conditions: purified 12hLO, xylenol orange hydroperoxide absorbance; activity change, negative = inhibition: at 108 µM (top of the series) unless noted.
How it was run: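 Hydroperoxide product was detected by ferrous iron/xylenol orange as the 573 to 405 nm absorbance ratio. Arachidonic acid at 40 uM (final) was turned over for 30 min at room temperature by 150 nM human 12hLO, pH 7.0 Hepes buffer, after 15 min compound preincubation.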
With `CCN(CC)CCOCCOc1ccc(Cl)c2ccccc12` the Potency was inconclusive: 5.01 µM [inhibitor, full curve].
`COc1ccc(C(CNC(=O)Cn2c(=O)oc3ccccc32)N(C)C)cc1` (stereo not drawn) was tested, and the Potency was inconclusive: 35.5 µM [inhibitor, partial curve, poor fit].
`CN(C)CCN1CCN(C2CN(Cc3cn(Cc4ccccc4C(F)(F)F)nn3)S(=O)(=O)C2)CC1` (stereo not drawn) was tested, and the Potency was inconclusive: 3.98 µM [inhibitor, full curve, poor fit].
With `CCCCCC/C(C)=N/NC(N)=S` the Potency was inconclusive: 158 µM [inhibitor, partial curve, poor fit].
`C=CCN1CCN(C(CC(C)C)c2nnnn2CCOC)CC1` (stereo not drawn) was tested, and the Potency was inconclusive: 39.8 µM [inhibitor, partial curve, poor fit].
In the case of `Cc1ccc2c(c1)c1ncnc(N3CCc4ccccc4C3)c1n2C`, the Potency is reported as inconclusive: 14.1 µM [inhibitor, partial curve].
For `CCCn1c(=O)n(CCC(=O)Nc2c(C)cccc2C)c2ccccc21`, the Potency was “inactive”.
With `CCCn1nc(C(=O)OCC(=O)Nc2ncc(Cl)c(C)c2Cl)c2ccccc2c1=O` the Potency was inconclusive: 31.6 µM [inhibitor, partial curve, poor fit].
In the case of `CCc1ccc(C2=NN(C(=O)Cc3ccc(OC)cc3)C(O)(C(F)(F)F)C2)cc1` (stereo not drawn), the Potency is reported as “inactive”.
`CCCN1C(=O)/C(=c2\sc3nc(=O)c(Cc4ccc(C)cc4)nn3c2=O)c2ccccc21` was tested, and the Potency was active: 50.1 µM.
For `Cc1cc(C)cc(NC(=O)COc2ccc3c(C)cc(=O)oc3c2)c1`, the Potency was inconclusive: 112 µM [inhibitor, single point].
`N#Cc1cccc(-c2nnc(SCc3ccccc3C#N)o2)c1` was tested, and the Potency was inconclusive: 100 µM [inhibitor, single point].
In the case of `COc1ccc(NC(=O)C2=C(C)Nc3ncnn3C2c2ccccn2)cc1` (stereo not drawn), the Potency is reported as inconclusive: 0.891 µM [inhibitor, full curve, poor fit].
`CCOC(=O)C1CCCN(c2c(C(=O)c3ccccc3)cnc3ccccc23)C1` (stereo not drawn) was tested, and the Potency was “inactive”.
In the case of `Cc1ccc(C(=O)COC(=O)CNC(=O)c2ccc(Br)o2)cc1[N+](=O)[O-]`, the Potency is reported as inconclusive: 89.1 µM [inhibitor, partial curve, poor fit].
For `CCOC(=O)c1cnc2c(C)cc(C)cc2c1Nc1ccc(OCc2ccccc2)cc1`, the Potency was inconclusive: 141 µM [inhibitor, single point].
For `Cc1cccc(NC(=O)/C(=C\c2ccco2)NC(=O)c2ccccc2)c1`, the Potency was inconclusive: 20 µM [inhibitor, full curve, poor fit].
In the case of `COc1ccc(-c2nn(-c3ccccc3)cc2/C=N/NC(N)=S)cc1OC`, the Potency is reported as active: 31.6 µM.
`CC(CNC(=O)Cc1n[nH]c(=O)c2ccccc12)(c1ccccc1)c1ccccc1` was tested, and the Potency was inconclusive: 141 µM [inhibitor, partial curve, poor fit].
For `CC(=O)Nc1cccc(OCC(=O)NS(=O)(=O)c2ccc(Cl)cc2)c1`, the Potency was inconclusive: 44.7 µM [inhibitor, partial curve, poor fit].
In the case of `COc1cccc(CC(=O)Nc2ccc3c(c2)OC2(CCCC2)O3)c1`, the Potency is reported as “inactive”.
With `COC(=O)Cn1c(=O)c2c(nc(-n3nc(C)cc3C)n2Cc2cccc(C)c2)n(C)c1=O` the Potency was “inactive”.
`O=C(c1cc2cc(Cl)ccc2[nH]1)N(Cc1ccccc1)Cc1ccco1` was tested, and the Potency was “inactive”.
With `Cc1nnc(SCCN2CCOCC2)n1C` the Potency was inconclusive: 0.355 µM [inhibitor, full curve, poor fit].
For `Cc1cc(C)c(S(=O)(=O)Nc2ccc(N(C)C)cc2)c(C)c1-n1cnnn1`, the Potency was “inactive”.
`Oc1ccc(N2CCN(c3nc(-c4cccnc4)nc4ccccc34)CC2)cc1` was tested, and the Potency was inconclusive: 35.5 µM [inhibitor, partial curve, poor fit].
`O=C(Nc1cccc(C(=O)N2CCCC2)c1)C1CC1` was tested, and the Potency was inconclusive: 112 µM [inhibitor, single point].
For `CN1CC(=O)N(c2ccc(Cl)cc2)Cc2c1ncnc2N1CCC(c2ccccc2)CC1`, the Potency was inconclusive: 8.91 µM [inhibitor, full curve].
`Cc1cc(NC(=O)CSC2=NS(=O)(=O)c3cc(F)ccc3N2)no1` was tested, and the Potency was inconclusive: 63.1 µM [inhibitor, partial curve, poor fit].
With `CCOC(=O)/C(C#N)=C/Nc1ccccc1OC` the Potency was “inactive”.
In the case of `Cc1cccc(-n2c(-c3ccco3)nc3c(cnn3-c3ccc(F)cc3)c2=O)c1`, the activity change, negative = inhibition is reported as inconclusive: -36.5% [inhibitor].
For `Clc1cccc(Nc2c3c(nc4ncnn24)CCC3)c1`, the Potency was “inactive”.
For `CC(C)(C)NC(=O)c1cc(-c2ccccc2Cl)nc2ccccc12`, the Potency was inconclusive: 100 µM [inhibitor, partial curve, poor fit].
`CCC(C)NC(=O)c1cc(-c2ccc3c(c2)OCO3)nc2ccccc12` (stereo not drawn) was tested, and the Potency was inconclusive: 7.94 µM [inhibitor, full curve].
In the case of `CC(C)NC(=O)CSc1nnc(-c2c[nH]c3ccccc23)o1`, the Potency is reported as “inactive”.
In the case of `CCn1cc(C(=O)O)c(=O)c2cc(Br)ccc21`, the Potency is reported as inconclusive: 6.31 µM [inhibitor, full curve, poor fit].
For `CCOC(=O)c1cc(S(=O)(=O)N(C)CC(=O)Nc2cccc(Cl)c2C)cn1C`, the Potency was “inactive”.
`CC1CCN(C(=O)CSc2nc(N)c(NC(=O)c3ccccc3)c(=O)[nH]2)CC1` was tested, and the Potency was inconclusive: 112 µM [inhibitor, single point].
In the case of `COCCNc1ncnc2c1CN(C1CCNC1)C(=O)CN2C` (stereo not drawn), the Potency is reported as inconclusive: 3.16 µM [inhibitor, full curve].
In the case of `CCOC(=O)c1ccc(N2C(=O)C3CCCN3C2=S)cc1` (stereo not drawn), the Potency is reported as inconclusive: 25.1 µM [inhibitor, partial curve, poor fit].
`O=C(Nc1ccc(Cl)c([N+](=O)[O-])c1)c1cnccn1` was tested, and the Potency was inconclusive: 79.4 µM [inhibitor, partial curve, poor fit].
`CCCS(=O)(=O)NC(=O)C1(C)CCN(C(=O)c2cc(F)cc(F)c2)C1` (stereo not drawn) was tested, and the Potency was inconclusive: 126 µM [inhibitor, partial curve, poor fit].
In the case of `CCOC(=O)c1c(C)c(-c2ccccc2)n(CC(=O)NCCN(C)C)c1C`, the Potency is reported as inconclusive: 31.6 µM [inhibitor, partial curve, poor fit].
With `COc1ccc(C(=O)c2sc(Nc3cccc(C)c3C)nc2N)cc1OC` the Potency was inconclusive: 100 µM [inhibitor, single point].
`CCN(C)c1cc2c(c3c1ccn3C)C1CCC2C1` (stereo not drawn) was tested, and the Potency was “inactive”.
`Fc1ccc(-c2noc([C@@H]3CCCN3Cc3ccccc3F)n2)nc1` was tested, and the Potency was “inactive”.
With `CCC(C)(C)C1CCC(NC(=S)NCCc2ccccc2)CC1` (stereo not drawn) the Potency was inconclusive: 50.1 µM [inhibitor, partial curve, poor fit].
`COc1cc(/C=N/NC(=O)Cc2cccc(C(F)(F)F)c2)ccc1OCc1ccccc1` was tested, and the Potency was “inactive”.
With `Cc1ccc(C)c(OCC(O)Cn2cnc3ncccc3c2=O)c1` (stereo not drawn) the Potency was “inactive”.
With `Cn1c(=O)c2c(nc(Br)n2CC(=O)c2ccc(Cl)cc2)n(C)c1=O` the Potency was inconclusive: 100 µM [inhibitor, single point].
In the case of `Cc1ccc2c(CC(=O)OCC(=O)N(CC(C)C)c3c(N)n(Cc4ccccc4)c(=O)[nH]c3=O)coc2c1`, the Potency is reported as inconclusive: 39.8 µM [inhibitor, partial curve].
In the case of `COc1ccc(NC(=O)C2CCN(S(=O)(=O)c3c(C)noc3/C=C/c3ccc(C)cc3)CC2)cc1Cl`, the Potency is reported as inconclusive: 50.1 µM [inhibitor, partial curve, poor fit].
`Cc1ccc(S(=O)(=O)N2CCCOC2CNC(=O)C(=O)NCc2ccccc2C)cc1` (stereo not drawn) was tested, and the Potency was inconclusive: 44.7 µM [inhibitor, partial curve, poor fit].
For `COc1nc2nc(CCc3ccccc3)n(C)c2cc1-c1ccnn1C`, the Potency was inconclusive: 63.1 µM [inhibitor, full curve].
With `N#Cc1ccc(C(=O)/C=C/c2ccc3c(c2)OCCO3)cc1` the Potency was inconclusive: 141 µM [inhibitor, partial curve, poor fit].
For `CSCCOc1ccc(-c2ccccc2)cc1`, the Potency was “inactive”.
In the case of `Cc1cccc2c1OC(=O)CC2c1ccccc1` (stereo not drawn), the Potency is reported as “inactive”.
For `COc1cccc(C(=O)NC(=S)Nc2ccccc2N2CCCCC2)c1`, the Potency was active: 39.8 µM.
For `Cn1c(=O)[nH]c(=O)c2c1nc(N1CCN(Cc3ccc(Cl)cc3)CC1)n2CCCc1ccccc1`, the Potency was “inactive”.
`COC[C@H]1CCCN1[C@@H]1[C@H](O)[C@H](CO)O[C@@H]1CNC(=O)Nc1cccc(Cl)c1` was tested, and the Potency was “inactive”.
`O=C(O/N=C1\C(=O)N(c2ccccc2)c2ccccc21)C1CC1` was tested, and the Potency was “inactive”.
With `COc1ccccc1C(=O)NC(CCSC)C(=O)NCC(c1cccs1)N1CCOCC1` (stereo not drawn) the Potency was “inactive”.
For `Fc1ccc(Cc2nc3nccc(-c4ccco4)n3n2)cc1`, the Potency was inconclusive: 56.2 µM [inhibitor, partial curve, poor fit].
In the case of `Cc1ccc(COC(=O)c2ccc(Cl)c(S(=O)(=O)N3CCOCC3)c2)cc1`, the Potency is reported as inconclusive: 70.8 µM [inhibitor, partial curve, poor fit].
For `COc1cccc(NC(=O)[C@H](CC(C)C)NC(=O)[C@@H]2Cc3ccccc3CN2)c1`, the Potency was inconclusive: 0.891 µM [inhibitor, partial curve, poor fit].
For `CCN1CCN(CCNC(=O)CSc2ncnc3c2sc2cccc(F)c23)CC1`, the Potency was “inactive”.
In the case of `O=S(=O)(O)c1cc2onnc2c2ccccc12`, the Potency is reported as inconclusive: 56.2 µM [inhibitor, partial curve, poor fit].
For `COc1ccccc1[C@H](c1cccc2ccccc12)[C@@](C)(C#N)C(=O)N1CCC(c2cccc(C(F)(F)F)c2)CC1`, the Potency was inconclusive: 3.85 µM [inhibitor, full curve, poor fit].
